# Laboratory results taken from the supplement of paper PMC8728848.
# The list shows a part of the results.
# Experiments:
# Assay in all cases: glycan array binding signal (z-score within array); higher = stronger binding
# Conditions in all cases: glycan notation: IUPAC condensed, linker removed
# [1] = biological target: Neu5Ac(a2-6)GlcNAc(b1-4)GlcNAc(b1-4)GlcNAc
# In short: (§1)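 The Consortium for Functional Glycomics database supplied 3228 glycan arrays, of which those lacking an available protein sequence were dropped. The binding signal, a within-array Z-score, was averaged across arrays of the same protein sequence and across linkers. Negative scores can be read as non-binding.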
# Neu5Ac(a2-8)Neu5Ac = biological target: Neu5Ac(a2-8)Neu5Ac
# In short: as §1
# [2] = biological target: Neu5Ac(a2-8)Neu5Ac(a2-3)Gal(b1-3)GalNAc(b1-4)[Neu5Ac(a2-3)]Gal(b1-4)Glc
# In short: as §1
# [3] = biological target: Neu5Ac(a2-8)Neu5Ac(a2-3)Gal(b1-3)GalNAc(b1-4)[Neu5Ac(a2-8)Neu5Ac(a2-3)]Gal(b1-4)Glc
# In short: as §1
# [4] = biological target: Neu5Ac(a2-8)Neu5Ac(a2-3)Gal(b1-4)Glc
# In short: as §1
# [5] = biological target: Neu5Ac(a2-8)Neu5Ac(a2-3)Gal(b1-4)GlcNAc
# In short: as §1
# [6] = biological target: Neu5Ac(a2-8)Neu5Ac(a2-3)[Gal(b1-3)GalNAc(b1-4)]Gal(b1-4)Glc
# In short: as §1
# [7] = biological target: Neu5Ac(a2-8)Neu5Ac(a2-3)[GalNAc(b1-4)]Gal(b1-4)Glc
# In short: as §1
# [8] = biological target: Neu5Ac(a2-8)Neu5Ac(a2-8)Neu5Ac
# In short: as §1
# [9] = biological target: Neu5Ac(a2-8)Neu5Ac(a2-8)Neu5Ac(a2-3)Gal(b1-4)Glc
# In short: as §1
# [10] = biological target: Neu5Ac(a2-8)Neu5Ac(a2-8)Neu5Ac(a2-3)[Gal(b1-3)GalNAc(b1-4)]Gal(b1-4)Glc
# In short: as §1
# [11] = biological target: Neu5Ac(a2-8)Neu5Ac(a2-8)Neu5Ac(a2-3)[GalNAc(b1-4)]Gal(b1-4)Glc
# In short: as §1
# [12] = biological target: Neu5Ac(a2-8)Neu5Ac(a2-8)Neu5Ac(a2-8)Neu5Ac(a2-3)[GalNAc(b1-4)]Gal(b1-4)Glc
# In short: as §1
# [13] = biological target: Neu5Ac(a2-8)Neu5Gc(a2-3)Gal(b1-4)GlcNAc
# In short: as §1
# [14] = biological target: Neu5Ac(b2-6)Gal(b1-4)GlcNAc
# In short: as §1
# Neu5Ac(b2-6)GalNAc = biological target: Neu5Ac(b2-6)GalNAc
# In short: as §1
# [15] = biological target: Neu5Ac9Ac(a2-3)Gal(b1-3)GlcNAc
# In short: as §1
# [16] = biological target: Neu5Ac9Ac(a2-3)Gal(b1-4)GlcNAc
# In short: as §1
# [17] = biological target: Neu5Ac9Ac(a2-6)Gal(b1-4)GlcNAc
# In short: as §1
# [18] = biological target: Neu5Gc(a2-3)Gal(b1-3)GlcNAc
# In short: as §1
# [19] = biological target: Neu5Gc(a2-3)Gal(b1-3)[Fuc(a1-4)]GlcNAc
# In short: as §1
# Neu5Gc(a2-3)Gal(b1-4)Glc = biological target: Neu5Gc(a2-3)Gal(b1-4)Glc
# In short: as §1
# [20] = biological target: Neu5Gc(a2-3)Gal(b1-4)GlcNAc
# In short: as §1
# [21] = biological target: Neu5Gc(a2-3)Gal(b1-4)GlcNAc(b1-3)Gal(b1-4)GlcNAc(b1-2)Man(a1-3)[Neu5Gc(a2-3)Gal(b1-4)GlcNAc(b1-3)Gal(b1-4)GlcNAc(b1-2)Man(a1-6)]Man(b1-4)GlcNAc(b1-4)GlcNAc
# In short: as §1
# [22] = biological target: Neu5Gc(a2-3)Gal(b1-4)[Fuc(a1-3)]GlcNAc
# In short: as §1
# [23] = biological target: Neu5Gc(a2-6)Gal(b1-4)GlcNAc
# In short: as §1
# Neu5Gc(a2-6)GalNAc = biological target: Neu5Gc(a2-6)GalNAc
# In short: as §1
# [24] = biological target: Neu5Gc(a2-8)Neu5Ac(a2-3)Gal(b1-4)GlcNAc
# In short: as §1
# [25] = biological target: Neu5Gc(a2-8)Neu5Gc(a2-3)Gal(b1-4)GlcNAc
# In short: as §1
# [26] = biological target: Neu5Gc(a2-8)Neu5Gc(a2-3)Gal(b1-4)GlcNAc(b1-3)Gal(b1-4)GlcNAc
# In short: as §1
# [27] = biological target: Neu5Gc(a2-8)Neu5Gc(a2-6)Gal(b1-4)GlcNAc
# In short: as §1
# [28] = biological target: Neu5Gc(b2-6)Gal(b1-4)GlcNAc
# In short: as §1
binder,measurement,setting,value
SJCP1531 (Schistosoma japonicum) (protein) MFKVRIINLVNISTVLLLINLLQTKSQVNVEQLVTVLEVNIKAQLKNKTTEVLVEWNPLYQDNSMPEYRKLLDETCKLFLPFVNEKVPPSTYGGECTNANFSEAPQDGSYSRVNAELRLIYKYSDNPQIQTDRLQDDLNDREEFITSESSFVAYNPKFTVKIEKLFIPISESQTTPPPTTAKNDASKKDDDDNGGEDSKAPIDTFAMTASGNKGKKDDDDNGGEDSKAPIDTFAMTASGSKDERSTWTIIGIITLVVLIFVVIGGGITVFVKRC,glycan array binding signal (z-score),[1],-0.292
same,glycan array binding signal (z-score),Neu5Ac(a2-8)Neu5Ac,0.11
same,glycan array binding signal (z-score),[2],1.9
same,glycan array binding signal (z-score),[3],0.787
same,glycan array binding signal (z-score),[4],-0.867
same,glycan array binding signal (z-score),[5],-1.67
same,glycan array binding signal (z-score),[6],-0.506
same,glycan array binding signal (z-score),[7],-0.211
same,glycan array binding signal (z-score),[8],0.075
same,glycan array binding signal (z-score),[9],0.59
same,glycan array binding signal (z-score),[10],-1.06
same,glycan array binding signal (z-score),[11],-0.714
same,glycan array binding signal (z-score),[12],1.45
same,glycan array binding signal (z-score),[13],-1.65
same,glycan array binding signal (z-score),[14],0.429
same,glycan array binding signal (z-score),Neu5Ac(b2-6)GalNAc,-1.49
same,glycan array binding signal (z-score),[15],-0.093
same,glycan array binding signal (z-score),[16],-0.874
same,glycan array binding signal (z-score),[17],0.138
same,glycan array binding signal (z-score),[18],0.155
same,glycan array binding signal (z-score),[19],0.412
same,glycan array binding signal (z-score),Neu5Gc(a2-3)Gal(b1-4)Glc,-1.12
same,glycan array binding signal (z-score),[20],-1.16
same,glycan array binding signal (z-score),[21],0.86
same,glycan array binding signal (z-score),[22],0.581
same,glycan array binding signal (z-score),[23],-0.348
same,glycan array binding signal (z-score),Neu5Gc(a2-6)GalNAc,0.537
same,glycan array binding signal (z-score),[24],-0.237
same,glycan array binding signal (z-score),[25],-1.35
same,glycan array binding signal (z-score),[26],-1.51
same,glycan array binding signal (z-score),[27],-1.29
same,glycan array binding signal (z-score),[28],-0.218

# Two successive entries already listed:
binder,measurement,setting,value
SJCP1531 (Schistosoma japonicum) (protein) MFKVRIINLVNISTVLLLINLLQTKSQVNVEQLVTVLEVNIKAQLKNKTTEVLVEWNPLYQDNSMPEYRKLLDETCKLFLPFVNEKVPPSTYGGECTNANFSEAPQDGSYSRVNAELRLIYKYSDNPQIQTDRLQDDLNDREEFITSESSFVAYNPKFTVKIEKLFIPISESQTTPPPTTAKNDASKKDDDDNGGEDSKAPIDTFAMTASGNKGKKDDDDNGGEDSKAPIDTFAMTASGSKDERSTWTIIGIITLVVLIFVVIGGGITVFVKRC,glycan array binding signal (z-score),[26],-1.51
same,glycan array binding signal (z-score),[27],-1.29
